Results as given in patent US20030199022.
For some of these results: No signal at the amounts used counts as a negative. For some of these results: Where cells or extracts were used, other partners may take part. For some of these results: Weaker means in comparison with the reference protein, sequence or condition of that experiment. For some of these results: The exact form of at least one protein or probe is not confirmed.

Amino acid sequences for entries named in this document (tags omitted).
UniProt P03372, whole entry G400V: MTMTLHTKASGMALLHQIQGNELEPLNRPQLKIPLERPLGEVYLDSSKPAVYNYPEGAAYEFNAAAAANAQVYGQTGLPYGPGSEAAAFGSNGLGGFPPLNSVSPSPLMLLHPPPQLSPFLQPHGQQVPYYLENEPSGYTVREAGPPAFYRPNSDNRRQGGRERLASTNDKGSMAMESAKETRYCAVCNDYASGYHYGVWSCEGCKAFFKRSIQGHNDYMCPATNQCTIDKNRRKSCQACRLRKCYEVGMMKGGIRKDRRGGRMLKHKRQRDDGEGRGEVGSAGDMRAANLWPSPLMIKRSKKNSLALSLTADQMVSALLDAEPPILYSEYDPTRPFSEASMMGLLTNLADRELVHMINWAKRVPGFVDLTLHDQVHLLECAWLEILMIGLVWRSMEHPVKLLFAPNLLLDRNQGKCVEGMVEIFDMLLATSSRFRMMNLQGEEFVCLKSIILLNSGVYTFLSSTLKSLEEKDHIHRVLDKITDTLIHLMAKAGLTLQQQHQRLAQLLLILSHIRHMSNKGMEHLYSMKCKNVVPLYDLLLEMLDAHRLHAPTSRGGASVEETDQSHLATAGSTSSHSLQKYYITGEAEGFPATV
UniProt P03372, whole entry E203W/Q214V/G215R/H216P/N217T/G400V: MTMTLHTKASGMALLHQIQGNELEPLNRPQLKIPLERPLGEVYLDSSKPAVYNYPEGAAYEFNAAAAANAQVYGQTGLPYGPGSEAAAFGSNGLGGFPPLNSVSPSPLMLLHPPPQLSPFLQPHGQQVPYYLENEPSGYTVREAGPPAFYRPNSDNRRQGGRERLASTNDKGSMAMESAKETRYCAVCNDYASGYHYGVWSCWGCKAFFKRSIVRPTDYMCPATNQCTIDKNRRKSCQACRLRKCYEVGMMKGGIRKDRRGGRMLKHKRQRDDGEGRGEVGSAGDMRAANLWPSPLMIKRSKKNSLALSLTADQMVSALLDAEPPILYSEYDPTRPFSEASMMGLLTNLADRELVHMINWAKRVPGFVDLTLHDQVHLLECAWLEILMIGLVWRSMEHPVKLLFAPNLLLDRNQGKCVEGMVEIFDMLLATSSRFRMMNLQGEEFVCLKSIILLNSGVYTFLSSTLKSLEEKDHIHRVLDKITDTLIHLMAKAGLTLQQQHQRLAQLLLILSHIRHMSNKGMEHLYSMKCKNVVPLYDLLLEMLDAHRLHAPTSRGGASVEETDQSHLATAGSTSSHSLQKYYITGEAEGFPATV
UniProt P03372, whole entry E203W/G204S/Q214A/H216G/G400V: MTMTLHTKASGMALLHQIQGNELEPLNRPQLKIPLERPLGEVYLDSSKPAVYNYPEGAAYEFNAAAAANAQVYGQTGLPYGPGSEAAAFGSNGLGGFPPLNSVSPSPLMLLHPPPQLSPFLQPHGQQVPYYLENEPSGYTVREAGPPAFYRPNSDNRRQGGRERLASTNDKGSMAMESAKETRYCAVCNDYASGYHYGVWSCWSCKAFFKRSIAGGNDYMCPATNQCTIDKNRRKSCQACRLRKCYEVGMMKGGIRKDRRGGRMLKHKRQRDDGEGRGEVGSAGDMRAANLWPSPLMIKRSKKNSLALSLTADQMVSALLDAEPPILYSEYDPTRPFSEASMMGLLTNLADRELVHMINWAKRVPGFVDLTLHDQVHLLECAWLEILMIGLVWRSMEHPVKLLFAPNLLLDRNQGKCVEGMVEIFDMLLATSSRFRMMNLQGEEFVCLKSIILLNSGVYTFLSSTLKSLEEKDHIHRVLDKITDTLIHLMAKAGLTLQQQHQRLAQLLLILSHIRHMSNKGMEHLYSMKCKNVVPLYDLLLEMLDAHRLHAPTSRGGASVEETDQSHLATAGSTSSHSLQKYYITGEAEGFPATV
UniProt P03372, whole entry E203W/Q214A/G215R/H216G/G400V: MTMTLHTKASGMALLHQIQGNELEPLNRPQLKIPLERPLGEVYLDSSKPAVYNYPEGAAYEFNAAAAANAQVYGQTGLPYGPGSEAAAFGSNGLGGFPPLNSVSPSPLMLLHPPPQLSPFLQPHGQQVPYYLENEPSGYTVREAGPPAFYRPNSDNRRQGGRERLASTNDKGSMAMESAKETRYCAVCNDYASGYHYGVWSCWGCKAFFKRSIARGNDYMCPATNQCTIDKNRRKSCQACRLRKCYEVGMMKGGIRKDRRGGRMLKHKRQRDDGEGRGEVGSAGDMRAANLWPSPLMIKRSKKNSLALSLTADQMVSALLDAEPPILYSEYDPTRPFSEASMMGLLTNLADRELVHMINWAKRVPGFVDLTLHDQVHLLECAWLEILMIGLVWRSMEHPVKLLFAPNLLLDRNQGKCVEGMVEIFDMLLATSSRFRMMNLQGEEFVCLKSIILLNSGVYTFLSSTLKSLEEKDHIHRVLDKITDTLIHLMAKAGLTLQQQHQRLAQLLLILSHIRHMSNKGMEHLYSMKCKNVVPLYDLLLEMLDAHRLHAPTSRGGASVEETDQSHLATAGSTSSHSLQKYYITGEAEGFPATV
UniProt P03372, whole entry E203W/Q214A/G215R/G400V: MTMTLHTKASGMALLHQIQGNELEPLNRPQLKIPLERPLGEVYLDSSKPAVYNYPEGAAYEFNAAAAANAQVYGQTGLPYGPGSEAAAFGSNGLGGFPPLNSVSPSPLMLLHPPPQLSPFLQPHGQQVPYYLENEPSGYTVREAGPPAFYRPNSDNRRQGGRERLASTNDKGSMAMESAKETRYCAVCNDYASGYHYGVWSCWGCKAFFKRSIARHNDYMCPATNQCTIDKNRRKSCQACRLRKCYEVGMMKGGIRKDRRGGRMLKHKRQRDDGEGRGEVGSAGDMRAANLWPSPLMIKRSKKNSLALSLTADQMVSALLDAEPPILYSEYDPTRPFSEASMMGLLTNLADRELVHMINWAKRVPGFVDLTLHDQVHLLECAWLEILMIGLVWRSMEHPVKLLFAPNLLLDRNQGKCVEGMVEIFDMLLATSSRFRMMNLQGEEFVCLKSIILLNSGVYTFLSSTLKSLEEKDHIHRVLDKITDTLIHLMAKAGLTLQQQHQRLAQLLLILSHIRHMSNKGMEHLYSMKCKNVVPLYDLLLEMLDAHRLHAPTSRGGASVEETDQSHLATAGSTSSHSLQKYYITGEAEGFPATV
UniProt P03372, whole entry E203W/Q214N/G215R/D218S/G400V: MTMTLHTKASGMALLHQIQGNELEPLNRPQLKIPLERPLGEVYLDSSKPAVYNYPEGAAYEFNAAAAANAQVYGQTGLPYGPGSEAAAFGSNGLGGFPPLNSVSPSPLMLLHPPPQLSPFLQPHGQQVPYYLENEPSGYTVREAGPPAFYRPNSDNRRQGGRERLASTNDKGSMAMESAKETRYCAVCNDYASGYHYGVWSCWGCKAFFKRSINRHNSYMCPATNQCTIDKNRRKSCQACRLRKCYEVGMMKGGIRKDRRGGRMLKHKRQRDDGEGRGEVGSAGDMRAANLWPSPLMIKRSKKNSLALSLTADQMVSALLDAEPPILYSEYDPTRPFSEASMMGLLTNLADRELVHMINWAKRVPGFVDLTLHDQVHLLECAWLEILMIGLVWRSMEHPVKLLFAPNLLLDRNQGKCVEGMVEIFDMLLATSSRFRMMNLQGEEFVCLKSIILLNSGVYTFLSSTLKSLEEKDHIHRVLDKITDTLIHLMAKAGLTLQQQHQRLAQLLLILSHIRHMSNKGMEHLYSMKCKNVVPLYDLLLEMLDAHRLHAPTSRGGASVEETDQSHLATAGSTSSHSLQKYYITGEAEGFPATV
UniProt P03372, whole entry G215R/N217P/D218R/G400V: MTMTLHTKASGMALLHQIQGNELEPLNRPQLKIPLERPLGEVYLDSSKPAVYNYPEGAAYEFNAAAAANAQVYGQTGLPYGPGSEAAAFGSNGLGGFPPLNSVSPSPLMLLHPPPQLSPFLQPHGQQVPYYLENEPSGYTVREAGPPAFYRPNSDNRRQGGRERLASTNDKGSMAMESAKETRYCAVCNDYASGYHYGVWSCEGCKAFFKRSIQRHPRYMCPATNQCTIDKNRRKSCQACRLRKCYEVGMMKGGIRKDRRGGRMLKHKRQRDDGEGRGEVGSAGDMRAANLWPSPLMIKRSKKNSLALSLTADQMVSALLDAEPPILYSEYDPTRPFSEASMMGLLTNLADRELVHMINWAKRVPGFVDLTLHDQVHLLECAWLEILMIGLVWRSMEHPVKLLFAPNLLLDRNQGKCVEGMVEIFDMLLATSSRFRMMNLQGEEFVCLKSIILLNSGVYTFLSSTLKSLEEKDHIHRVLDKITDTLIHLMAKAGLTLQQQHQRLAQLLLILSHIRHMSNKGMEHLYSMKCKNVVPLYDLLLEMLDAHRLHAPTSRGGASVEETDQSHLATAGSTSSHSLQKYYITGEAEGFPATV
UniProt P03372, whole entry Q214A/G215R/H216R/N217L/G400V: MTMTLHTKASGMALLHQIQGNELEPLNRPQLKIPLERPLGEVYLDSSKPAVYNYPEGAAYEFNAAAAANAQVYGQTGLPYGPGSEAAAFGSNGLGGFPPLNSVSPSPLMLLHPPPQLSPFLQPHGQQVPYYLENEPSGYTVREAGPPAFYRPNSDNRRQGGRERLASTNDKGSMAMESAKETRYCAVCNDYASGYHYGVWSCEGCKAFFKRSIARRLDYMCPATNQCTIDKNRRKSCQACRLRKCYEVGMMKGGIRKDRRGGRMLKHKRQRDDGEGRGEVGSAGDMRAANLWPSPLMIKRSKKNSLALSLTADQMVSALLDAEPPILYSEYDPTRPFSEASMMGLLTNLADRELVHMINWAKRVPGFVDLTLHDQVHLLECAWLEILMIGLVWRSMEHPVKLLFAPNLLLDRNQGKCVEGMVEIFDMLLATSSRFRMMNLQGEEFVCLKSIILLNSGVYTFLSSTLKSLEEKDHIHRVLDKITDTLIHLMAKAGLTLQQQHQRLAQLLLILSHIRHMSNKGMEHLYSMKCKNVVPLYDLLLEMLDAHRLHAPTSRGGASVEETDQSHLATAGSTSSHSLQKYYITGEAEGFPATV
UniProt P03372, whole entry G204S/Q214G/D218Y/G400V: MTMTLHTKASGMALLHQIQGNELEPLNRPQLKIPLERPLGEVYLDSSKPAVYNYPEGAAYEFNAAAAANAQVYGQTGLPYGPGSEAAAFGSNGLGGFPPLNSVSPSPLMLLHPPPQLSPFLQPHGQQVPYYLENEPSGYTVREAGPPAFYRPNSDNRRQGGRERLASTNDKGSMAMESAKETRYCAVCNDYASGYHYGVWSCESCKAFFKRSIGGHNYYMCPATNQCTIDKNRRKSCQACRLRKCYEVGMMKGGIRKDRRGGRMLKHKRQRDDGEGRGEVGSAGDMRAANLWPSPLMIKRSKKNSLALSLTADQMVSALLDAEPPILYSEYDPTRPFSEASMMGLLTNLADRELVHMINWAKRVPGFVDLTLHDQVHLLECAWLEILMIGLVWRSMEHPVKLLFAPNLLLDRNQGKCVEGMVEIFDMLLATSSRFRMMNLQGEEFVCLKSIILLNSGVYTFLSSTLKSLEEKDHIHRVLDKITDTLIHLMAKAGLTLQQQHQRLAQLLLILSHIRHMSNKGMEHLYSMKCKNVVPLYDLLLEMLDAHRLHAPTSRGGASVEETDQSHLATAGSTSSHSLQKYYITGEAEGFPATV
UniProt P03372, whole entry E203W/G204S/A207G/I213K/G400V: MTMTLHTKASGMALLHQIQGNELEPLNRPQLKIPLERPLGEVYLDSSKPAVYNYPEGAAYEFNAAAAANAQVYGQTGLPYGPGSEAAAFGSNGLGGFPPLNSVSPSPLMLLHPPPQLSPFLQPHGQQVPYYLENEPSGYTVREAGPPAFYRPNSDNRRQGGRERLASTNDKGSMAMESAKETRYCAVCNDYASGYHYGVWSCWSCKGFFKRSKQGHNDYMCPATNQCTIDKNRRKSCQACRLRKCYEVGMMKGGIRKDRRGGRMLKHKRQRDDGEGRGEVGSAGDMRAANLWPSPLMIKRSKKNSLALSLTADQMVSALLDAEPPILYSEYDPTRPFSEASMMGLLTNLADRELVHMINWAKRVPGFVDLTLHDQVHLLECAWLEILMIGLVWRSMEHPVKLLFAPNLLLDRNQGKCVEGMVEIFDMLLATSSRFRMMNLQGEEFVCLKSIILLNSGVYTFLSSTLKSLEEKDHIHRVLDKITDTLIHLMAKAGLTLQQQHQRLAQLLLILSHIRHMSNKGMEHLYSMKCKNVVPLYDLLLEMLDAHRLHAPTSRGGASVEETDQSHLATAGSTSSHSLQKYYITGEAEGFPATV
UniProt P03372, whole entry E203W/Q214A/H216G/G400V: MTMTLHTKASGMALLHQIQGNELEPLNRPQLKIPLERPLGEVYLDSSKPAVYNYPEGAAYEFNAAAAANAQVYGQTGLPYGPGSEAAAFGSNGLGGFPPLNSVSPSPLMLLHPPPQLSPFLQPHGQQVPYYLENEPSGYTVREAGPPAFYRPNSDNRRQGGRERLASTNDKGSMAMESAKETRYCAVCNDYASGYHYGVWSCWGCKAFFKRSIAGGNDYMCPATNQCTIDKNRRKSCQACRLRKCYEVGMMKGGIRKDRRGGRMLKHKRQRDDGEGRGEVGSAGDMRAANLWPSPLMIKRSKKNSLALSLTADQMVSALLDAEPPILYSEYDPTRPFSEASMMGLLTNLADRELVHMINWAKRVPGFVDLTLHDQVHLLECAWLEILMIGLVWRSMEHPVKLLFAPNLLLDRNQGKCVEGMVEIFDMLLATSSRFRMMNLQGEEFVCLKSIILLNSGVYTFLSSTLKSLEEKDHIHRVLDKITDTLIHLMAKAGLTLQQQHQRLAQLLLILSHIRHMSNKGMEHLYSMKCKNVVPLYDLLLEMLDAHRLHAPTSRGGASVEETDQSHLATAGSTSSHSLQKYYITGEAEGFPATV

Key:
[1] = target: ERα wild type (in cell) (Homo sapiens) (UniProt P03372); assay: activity in cells; details: HepG2, little or no transactivation; protein in cells
[2] = target: ER4.3 E203W,Q214V,G215R,H216P,N217T (Homo sapiens) (UniProt P03372); assay: EMSA; details: protein in a lysate after overexpression, label: labeled
[3] = target: ER2.1 E203W,G204S,Q214A,H216G (Homo sapiens) (UniProt P03372); assay: EMSA; details: little or no binding, protein in a lysate after overexpression, label: labeled
[4] = target: ERα wild type (hERα) (Homo sapiens) (UniProt P03372); assay: EMSA; details: best binder to cERE; estradiol-treated cells, 50 mM KCl, poly(dIdC); protein in a lysate after overexpression; protein details: CHO-S whole cell extract; label: labeled
[5] = target: ER4 E203W,Q214A,G215R,H216G (Homo sapiens) (UniProt P03372); assay: EMSA; details: protein in a lysate after overexpression, label: labeled
[6] = target: ER2 E203W,Q214A,G215R (Homo sapiens) (UniProt P03372); assay: EMSA; details: protein in a lysate after overexpression, label: labeled
[7] = target: ER3.1 E203W,Q214N,G215R,D218S (Homo sapiens) (UniProt P03372); assay: EMSA; details: protein in a lysate after overexpression, label: labeled
[8] = target: ER7.2 G215R,N217P,D218R (Homo sapiens) (UniProt P03372); assay: EMSA; details: little or no binding, protein in a lysate after overexpression, label: labeled
[9] = target: ER6.2 Q214A,G215R,H216R,N217L (Homo sapiens) (UniProt P03372); assay: EMSA; details: protein in a lysate after overexpression, label: labeled
[10] = target: ER15.3 G204S,Q214G,D218Y (Homo sapiens) (UniProt P03372); assay: EMSA; details: little or no binding, protein in a lysate after overexpression, label: labeled
[11] = target: ER50.1 E203W,G204S,A207G,I213K (Homo sapiens) (UniProt P03372); assay: EMSA; details: little or no binding, protein in a lysate after overexpression, label: labeled
[12] = target: ER3M E203W,Q214A,H216G (Homo sapiens) (UniProt P03372); assay: EMSA; details: protein in a lysate after overexpression, label: labeled
[13] = target: ER57.1 E203W,G204S,A207G,Q214K,H216V,N217P,D218T (Homo sapiens) (UniProt P03372); assay: EMSA; details: little or no binding, protein in a lysate after overexpression, label: labeled

For “AAGCTTGGGCCACTGTGGCCCATCAAGATATCGAGATGGGCCACTGTGGCCCATCGACTCTAGA (double strand) [ATL2/PAL]”, the “activity on this sequence” value [1] was “not active”.

“AGCTTCTCTATTAGGTCACTGTGACCTTCATCTGAAGCT (double strand) [cERE probe]”: binds more weakly ([2]; range for mutants); no binding [3]; binds [4]. “AGCTTCTCTATTAGGTCACTGTGACCTTCATCTGAAGCT (double strand) [cERE probe]”: binds more weakly ([5]; range for mutants); binds more weakly ([6]; range for mutants); binds more weakly ([7]; range for mutants). “AGCTTCTCTATTAGGTCACTGTGACCTTCATCTGAAGCT (double strand) [cERE probe]”: no binding [8]; binds more weakly ([9]; range for mutants); no binding [10]. “AGCTTCTCTATTAGGTCACTGTGACCTTCATCTGAAGCT (double strand) [cERE probe]”: no binding [11]; binds more weakly ([12]; range for mutants); no binding [13].

“AGCTTCTCTATTGGGCCACTGTGACCTTCATCTGAAGCT (double strand) [pS2 ERE probe]”: binds ([2]; variant of cERE probe); no binding ([3]; variant of cERE probe); binds ([5]; variant of cERE probe). “AGCTTCTCTATTGGGCCACTGTGACCTTCATCTGAAGCT (double strand) [pS2 ERE probe]”: binds ([6]; variant of cERE probe); binds ([7]; variant of cERE probe); no binding ([8]; variant of cERE probe). “AGCTTCTCTATTGGGCCACTGTGACCTTCATCTGAAGCT (double strand) [pS2 ERE probe]”: binds more weakly ([9]; dramatic decrease versus cERE, variant of cERE probe); no binding ([10]; variant of cERE probe); no binding ([11]; variant of cERE probe). “AGCTTCTCTATTGGGCCACTGTGACCTTCATCTGAAGCT (double strand) [pS2 ERE probe]”: binds ([12]; variant of cERE probe); no binding ([13]; variant of cERE probe).

“AGCTTCTCTATTGGGCCACTGTGGCCCTCATCTGAAGCT (double strand) [pS2 PAL probe]”: no binding ([9]; negligible binding, variant of pS2 ERE probe).
